In publication PMC5992430 one finds binding data, which are given here for one molecule.

Protein sequences, listed by entry. Tags and fused reporters are not part of them. Residues count along the entry.
UniProt P48357, residues 22-839: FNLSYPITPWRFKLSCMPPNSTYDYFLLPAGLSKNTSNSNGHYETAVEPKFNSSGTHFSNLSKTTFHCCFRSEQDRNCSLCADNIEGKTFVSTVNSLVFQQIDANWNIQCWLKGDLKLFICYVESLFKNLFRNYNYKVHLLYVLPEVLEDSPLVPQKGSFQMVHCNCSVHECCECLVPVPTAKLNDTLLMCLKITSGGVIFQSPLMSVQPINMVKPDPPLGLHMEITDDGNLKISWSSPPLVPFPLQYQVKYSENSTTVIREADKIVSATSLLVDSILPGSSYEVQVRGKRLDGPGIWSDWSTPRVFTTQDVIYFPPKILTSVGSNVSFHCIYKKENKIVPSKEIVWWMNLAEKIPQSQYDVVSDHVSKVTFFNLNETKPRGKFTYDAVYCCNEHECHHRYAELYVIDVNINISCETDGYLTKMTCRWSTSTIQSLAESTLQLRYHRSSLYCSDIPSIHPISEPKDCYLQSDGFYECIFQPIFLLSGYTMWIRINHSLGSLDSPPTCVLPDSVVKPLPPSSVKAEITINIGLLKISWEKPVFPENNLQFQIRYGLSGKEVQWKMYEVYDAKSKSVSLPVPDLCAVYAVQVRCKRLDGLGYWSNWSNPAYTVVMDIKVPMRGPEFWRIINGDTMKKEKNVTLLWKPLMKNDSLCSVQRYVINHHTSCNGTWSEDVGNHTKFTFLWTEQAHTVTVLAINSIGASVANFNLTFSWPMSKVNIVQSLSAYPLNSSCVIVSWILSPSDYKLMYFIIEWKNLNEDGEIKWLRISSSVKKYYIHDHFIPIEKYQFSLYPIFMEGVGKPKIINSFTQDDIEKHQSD

These are yes or no findings as the source states them, for the method shown. In cells and extracts the contact can be indirect. Some results given as binding are weak or reduced against the parent protein; the word gives no strength.

The target of assay [1] is Soluble leptin receptor of human serum (human (endogenous in human serum)) (UniProt P48357). Put plainly: co-IP; human serum immunoprecipitated with anti-Ob R or anti-CRP and protein A beads; SDS-PAGE and Western blot probed with anti-CRP or anti-sOb R, ECL. (In general: In western blotting, separated proteins are transferred to a membrane and probed.)
For assay [2], the target named is Soluble recombinant human leptin receptor (human) (UniProt P48357). Briefly: co-IP; 50 µl fresh human serum spiked with 50 or 100 ng leptin receptor and incubated for 30 min; leptin receptor immunoprecipitated; co-precipitated CRP estimated by ELISA; only the target purified.

B1: C-reactive protein of human serum (protein, UniProt P02741 19-224)
chain: QTDMSRKAFVFPKESDTSYVSLKAPLTKPLKAFTVCLHFYTELSSTRGYSIFSYATKRQDNEILIFWSKDIGYSFTVGGSEILFEVPEVTVAPVHICTSWESASGIVEFWVDGKPRVRKSLKKGYTVGAEASIILGQEQDSFGGNFEGSQSLVGDIGNVNMWDFVLSPDEINTIYLGGPFSPNVLNWRALKYEVQGEVFTKPQLWP
On to B1, for which the binding entry in assay [1] and in assay [2] was “binds” in each case.
